Values of other authors as cited in PMC6920949, “Muscle to Brain Partitioning as Measure of Transporter-Mediated Efflux at the Rat Blood–Brain Barrier and Its Implementation into Compound Optimization in Drug Discovery” (Pharmaceutics, 2019).

Details: compounds without blood-brain barrier efflux; cited from earlier work

For CN1C(=O)CN=C(c2ccccc2)c2cc(Cl)ccc21 [diazepam], the “distribution into brain and skeletal muscle” value is given as “very similar distributions into brain and skeletal muscle”.
